This passage reports binding results from article PMC9722938.

These are yes or no findings as the source states them, for the method shown. In cells and extracts the contact can be indirect. Some results given as binding are weak or reduced against the parent protein; the word gives no strength. For some assays here: Where a sequence is shown, tags or fusion partners need not be part of it.

Assay [1] has as its target YAP (human (endogenous in ESCC cells)), P46937. The experiment in a line: co-IP; endogenous proteins in ESCC cell lysate, NP-40 buffer, Protein A/G magnetic beads, IP with anti-USP36 or anti-YAP overnight at 4 °C, IgG as negative control. The note with it: remark: other sources report otherwise.
For assay [2], the target named is Myc-YAP (human), P46937. The experiment in a line: co-IP; cells transfected with Myc-YAP and Flag-tagged wild-type or truncated USP36, NP-40 lysate, IP with anti-Myc (YAP), blot for Flag. The note with it: remark: other sources report otherwise.

B1: USP36, Q9P275 1-1123 (enzyme)
chain: MPIVDKLKEALKPGRKDSADDGELGKLLASSAKKVLLQKIEFEPASKSFSYQLEALKSKYVLLNPKTEGASRHKSGDDPPARRQGSEHTYESCGDGVPAPQKVLFPTERLSLRWERVFRVGAGLHNLGNTCFLNATIQCLTYTPPLANYLLSKEHARSCHQGSFCMLCVMQNHIVQAFANSGNAIKPVSFIRDLKKIARHFRFGNQEDAHEFLRYTIDAMQKACLNGCAKLDRQTQATTLVHQIFGGYLRSRVKCSVCKSVSDTYDPYLDVALEIRQAANIVRALELFVKADVLSGENAYMCAKCKKKVPASKRFTIHRTSNVLTLSLKRFANFSGGKITKDVGYPEFLNIRPYMSQNNGDPVMYGLYAVLVHSGYSCHAGHYYCYVKASNGQWYQMNDSLVHSSNVKVVLNQQAYVLFYLRIPGSKKSPEGLISRTGSSSLPGRPSVIPDHSKKNIGNGIISSPLTGKRQDSGTMKKPHTTEEIGVPISRNGSTLGLKSQNGCIPPKLPSGSPSPKLSQTPTHMPTILDDPGKKVKKPAPPQHFSPRTAQGLPGTSNSNSSRSGSQRQGSWDSRDVVLSTSPKLLATATANGHGLKGNDESAGLDRRGSSSSSPEHSASSDSTKAPQTPRSGAAHLCDSQETNCSTAGHSKTPPSGADSKTVKLKSPVLSNTTTEPASTMSPPPAKKLALSAKKASTLWRATGNDLRPPPPSPSSDLTHPMKTSHPVVASTWPVHRARAVSPAPQSSSRLQPPFSPHPTLLSSTPKPPGTSEPRSCSSISTALPQVNEDLVSLPHQLPEASEPPQSPSEKRKKTFVGEPQRLGSETRLPQHIREATAAPHGKRKRKKKKRPEDTAASALQEGQTQRQPGSPMYRREGQAQLPAVRRQEDGTQPQVNGQQVGCVTDGHHASSRKRRRKGAEGLGEEGGLHQDPLRHSCSPMGDGDPEAMEESPRKKKKKKRKQETQRAVEEDGHLKCPRSAKPQDAVVPESSSCAPSANGWCPGDRMGLSQAPPVSWNGERESDVVQELLKYSSDKAYGRKVLTWDGKMSAVSQDAIEDSRQARTETVVDDWDEEFDRGKEKKIKKFKREKRRNFNAFQKLQTRRNFWSVTHPAKAASLSYRR
As for B1, the binding result in assay [1] is listed as “binds”.

B2: USP36-Flag, Q9P275 1-1123 (enzyme)
chain: MPIVDKLKEALKPGRKDSADDGELGKLLASSAKKVLLQKIEFEPASKSFSYQLEALKSKYVLLNPKTEGASRHKSGDDPPARRQGSEHTYESCGDGVPAPQKVLFPTERLSLRWERVFRVGAGLHNLGNTCFLNATIQCLTYTPPLANYLLSKEHARSCHQGSFCMLCVMQNHIVQAFANSGNAIKPVSFIRDLKKIARHFRFGNQEDAHEFLRYTIDAMQKACLNGCAKLDRQTQATTLVHQIFGGYLRSRVKCSVCKSVSDTYDPYLDVALEIRQAANIVRALELFVKADVLSGENAYMCAKCKKKVPASKRFTIHRTSNVLTLSLKRFANFSGGKITKDVGYPEFLNIRPYMSQNNGDPVMYGLYAVLVHSGYSCHAGHYYCYVKASNGQWYQMNDSLVHSSNVKVVLNQQAYVLFYLRIPGSKKSPEGLISRTGSSSLPGRPSVIPDHSKKNIGNGIISSPLTGKRQDSGTMKKPHTTEEIGVPISRNGSTLGLKSQNGCIPPKLPSGSPSPKLSQTPTHMPTILDDPGKKVKKPAPPQHFSPRTAQGLPGTSNSNSSRSGSQRQGSWDSRDVVLSTSPKLLATATANGHGLKGNDESAGLDRRGSSSSSPEHSASSDSTKAPQTPRSGAAHLCDSQETNCSTAGHSKTPPSGADSKTVKLKSPVLSNTTTEPASTMSPPPAKKLALSAKKASTLWRATGNDLRPPPPSPSSDLTHPMKTSHPVVASTWPVHRARAVSPAPQSSSRLQPPFSPHPTLLSSTPKPPGTSEPRSCSSISTALPQVNEDLVSLPHQLPEASEPPQSPSEKRKKTFVGEPQRLGSETRLPQHIREATAAPHGKRKRKKKKRPEDTAASALQEGQTQRQPGSPMYRREGQAQLPAVRRQEDGTQPQVNGQQVGCVTDGHHASSRKRRRKGAEGLGEEGGLHQDPLRHSCSPMGDGDPEAMEESPRKKKKKKRKQETQRAVEEDGHLKCPRSAKPQDAVVPESSSCAPSANGWCPGDRMGLSQAPPVSWNGERESDVVQELLKYSSDKAYGRKVLTWDGKMSAVSQDAIEDSRQARTETVVDDWDEEFDRGKEKKIKKFKREKRRNFNAFQKLQTRRNFWSVTHPAKAASLSYRR
On to B2, for which the binding result in assay [2] is “binds”.
